The list shows a part of the results.
Legend:
Experiment in all cases: glycan array binding signal (z-score within array); higher = stronger binding
Conditions in all cases: glycan notation: IUPAC condensed, linker removed
[1] = biological target: GlcNAc(b1-2)Man(a1-3)[GlcNAc(b1-2)Man(a1-6)]Man(b1-4)GlcNAc(b1-4)GlcNAc
Summary of the method: (§1)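 Columns mapping to the same glycan were averaged after glycan names were converted to IUPAC-condensed notation. The data come from 3228 arrays in the Consortium for Functional Glycomics database, limited to those with an available protein sequence. Binding is reported as a within-array Z-score averaged across arrays of one protein sequence and across linkers.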

[2] = biological target: GlcNAc(b1-2)Man(a1-3)[GlcNAc(b1-2)Man(a1-6)]Man(b1-4)GlcNAc(b1-4)[Fuc(a1-6)]GlcNAc
Summary of the method: as §1

[3] = biological target: GlcNAc(b1-2)Man(a1-3)[GlcNAc(b1-4)][GlcNAc(b1-2)Man(a1-6)]Man(b1-4)GlcNAc(b1-4)GlcNAc
Summary of the method: as §1

[4] = biological target: GlcNAc(b1-2)Man(a1-3)[GlcNAc(b1-4)][GlcNAc(b1-2)Man(a1-6)]Man(b1-4)GlcNAc(b1-4)[Fuc(a1-6)]GlcNAc
Summary of the method: as §1

[5] = biological target: GlcNAc(b1-2)[GlcNAc(b1-4)]Man(a1-3)[GlcNAc(b1-2)Man(a1-6)]Man(b1-4)GlcNAc(b1-4)GlcNAc
Summary of the method: as §1

[6] = biological target: GlcNAc(b1-2)[GlcNAc(b1-4)]Man(a1-3)[GlcNAc(b1-4)][GlcNAc(b1-2)Man(a1-6)]Man(b1-4)GlcNAc(b1-4)GlcNAc
Summary of the method: as §1

[7] = biological target: GlcNAc(b1-2)[GlcNAc(b1-4)]Man(a1-3)[GlcNAc(b1-4)][GlcNAc(b1-2)[GlcNAc(b1-6)]Man(a1-6)]Man(b1-4)GlcNAc(b1-4)GlcNAc
Summary of the method: as §1

[8] = biological target: GlcNAc(b1-2)[GlcNAc(b1-4)]Man(a1-3)[GlcNAc(b1-4)][GlcNAc(b1-2)[GlcNAc(b1-6)]Man(a1-6)]Man(b1-4)GlcNAc(b1-4)[Fuc(a1-6)]GlcNAc
Summary of the method: as §1

[9] = biological target: GlcNAc(b1-2)[GlcNAc(b1-6)]Man(a1-6)[GlcNAc(b1-2)Man(a1-3)]Man(b1-4)GlcNAc(b1-4)GlcNAc
Summary of the method: as §1

[10] = biological target: GlcNAc(b1-2)[GlcNAc(b1-6)]Man(a1-6)[GlcNAc(b1-2)Man(a1-3)]Man(b1-4)GlcNAc(b1-4)[Fuc(a1-6)]GlcNAc
Summary of the method: as §1

[11] = biological target: GlcNAc(b1-2)[GlcNAc(b1-6)]Man(a1-6)[GlcNAc(b1-4)][GlcNAc(b1-2)Man(a1-3)]Man(b1-4)GlcNAc(b1-4)GlcNAc
Summary of the method: as §1

GlcNAc(b1-3)Fuc = biological target: GlcNAc(b1-3)Fuc
Summary of the method: as §1

GlcNAc(b1-3)Gal = biological target: GlcNAc(b1-3)Gal
Summary of the method: as §1

[12] = biological target: GlcNAc(b1-3)Gal(b1-3)GalNAc
Summary of the method: as §1

GlcNAc(b1-3)Gal(b1-4)Glc = biological target: GlcNAc(b1-3)Gal(b1-4)Glc
Summary of the method: as §1

[13] = biological target: GlcNAc(b1-3)Gal(b1-4)GlcNAc
Summary of the method: as §1

[14] = biological target: GlcNAc(b1-3)Gal(b1-4)GlcNAc(b1-2)Man(a1-3)[GlcNAc(b1-3)Gal(b1-4)GlcNAc(b1-2)Man(a1-6)]Man(b1-4)GlcNAc(b1-4)GlcNAc
Summary of the method: as §1

[15] = biological target: GlcNAc(b1-3)Gal(b1-4)GlcNAc(b1-2)Man(a1-3)[GlcNAc(b1-3)Gal(b1-4)GlcNAc(b1-2)Man(a1-6)]Man(b1-4)GlcNAc(b1-4)[Fuc(a1-6)]GlcNAc
Summary of the method: as §1

[16] = biological target: GlcNAc(b1-3)Gal(b1-4)GlcNAc(b1-2)[GlcNAc(b1-3)Gal(b1-4)GlcNAc(b1-6)]Man(a1-6)[GlcNAc(b1-3)Gal(b1-4)GlcNAc(b1-2)Man(a1-3)]Man(b1-4)GlcNAc(b1-4)GlcNAc
Summary of the method: as §1

[17] = biological target: GlcNAc(b1-3)Gal(b1-4)GlcNAc(b1-3)Gal(b1-4)GlcNAc
Summary of the method: as §1

[18] = biological target: GlcNAc(b1-3)Gal(b1-4)GlcNAc(b1-3)Gal(b1-4)GlcNAc(b1-2)Man(a1-3)[GlcNAc(b1-3)Gal(b1-4)GlcNAc(b1-3)Gal(b1-4)GlcNAc(b1-2)Man(a1-6)]Man(b1-4)GlcNAc(b1-4)GlcNAc
Summary of the method: as §1

[19] = biological target: GlcNAc(b1-3)Gal(b1-4)GlcNAc(b1-3)Gal(b1-4)GlcNAc(b1-2)Man(a1-3)[GlcNAc(b1-3)Gal(b1-4)GlcNAc(b1-3)Gal(b1-4)GlcNAc(b1-2)Man(a1-6)]Man(b1-4)GlcNAc(b1-4)[Fuc(a1-6)]GlcNAc
Summary of the method: as §1

[20] = biological target: GlcNAc(b1-3)Gal(b1-4)GlcNAc(b1-3)Gal(b1-4)GlcNAc(b1-2)[GlcNAc(b1-3)Gal(b1-4)GlcNAc(b1-3)Gal(b1-4)GlcNAc(b1-6)]Man(a1-6)[GlcNAc(b1-3)Gal(b1-4)GlcNAc(b1-3)Gal(b1-4)GlcNAc(b1-2)Man(a1-3)]Man(b1-4)GlcNAc(b1-4)[Fuc(a1-6)]GlcNAc
Summary of the method: as §1

[21] = biological target: GlcNAc(b1-3)Gal(b1-4)GlcNAc(b1-3)Gal(b1-4)GlcNAc(b1-3)Gal(b1-4)GlcNAc(b1-2)Man(a1-3)[GlcNAc(b1-3)Gal(b1-4)GlcNAc(b1-3)Gal(b1-4)GlcNAc(b1-3)Gal(b1-4)GlcNAc(b1-2)Man(a1-6)]Man(b1-4)GlcNAc(b1-4)GlcNAc
Summary of the method: as §1

[22] = biological target: GlcNAc(b1-3)Gal(b1-4)GlcNAc(b1-3)Gal(b1-4)GlcNAc(b1-3)Gal(b1-4)GlcNAc(b1-2)Man(a1-3)[GlcNAc(b1-3)Gal(b1-4)GlcNAc(b1-3)Gal(b1-4)GlcNAc(b1-3)Gal(b1-4)GlcNAc(b1-2)Man(a1-6)]Man(b1-4)GlcNAc(b1-4)[Fuc(a1-6)]GlcNAc
Summary of the method: as §1

[23] = biological target: GlcNAc(b1-3)Gal(b1-4)GlcNAc(b1-3)Gal(b1-4)GlcNAc(b1-3)Gal(b1-4)GlcNAc(b1-2)[GlcNAc(b1-3)Gal(b1-4)GlcNAc(b1-3)Gal(b1-4)GlcNAc(b1-3)Gal(b1-4)GlcNAc(b1-6)]Man(a1-6)[GlcNAc(b1-3)Gal(b1-4)GlcNAc(b1-3)Gal(b1-4)GlcNAc(b1-3)Gal(b1-4)GlcNAc(b1-2)Man(a1-3)]Man(b1-4)GlcNAc(b1-4)[Fuc(a1-6)]GlcNAc
Summary of the method: as §1

[24] = biological target: GlcNAc(b1-3)Gal(b1-4)GlcNAc(b1-3)Gal(b1-4)GlcNAc(b1-3)Gal(b1-4)GlcNAc(b1-3)Gal(b1-4)GlcNAc(b1-2)Man(a1-3)[GlcNAc(b1-3)Gal(b1-4)GlcNAc(b1-3)Gal(b1-4)GlcNAc(b1-3)Gal(b1-4)GlcNAc(b1-3)Gal(b1-4)GlcNAc(b1-2)Man(a1-6)]Man(b1-4)GlcNAc(b1-4)GlcNAc
Summary of the method: as §1

[25] = biological target: GlcNAc(b1-3)Gal(b1-4)GlcNAc(b1-3)Gal(b1-4)GlcNAc(b1-3)Gal(b1-4)GlcNAc(b1-3)Gal(b1-4)GlcNAc(b1-2)Man(a1-3)[GlcNAc(b1-3)Gal(b1-4)GlcNAc(b1-3)Gal(b1-4)GlcNAc(b1-3)Gal(b1-4)GlcNAc(b1-3)Gal(b1-4)GlcNAc(b1-2)Man(a1-6)]Man(b1-4)GlcNAc(b1-4)[Fuc(a1-6)]GlcNAc
Summary of the method: as §1

[26] = biological target: GlcNAc(b1-3)Gal(b1-4)GlcNAc(b1-3)Gal(b1-4)GlcNAc(b1-3)Gal(b1-4)GlcNAc(b1-3)Gal(b1-4)GlcNAc(b1-2)[GlcNAc(b1-3)Gal(b1-4)GlcNAc(b1-3)Gal(b1-4)GlcNAc(b1-3)Gal(b1-4)GlcNAc(b1-3)Gal(b1-4)GlcNAc(b1-6)]Man(a1-6)[GlcNAc(b1-3)Gal(b1-4)GlcNAc(b1-3)Gal(b1-4)GlcNAc(b1-3)Gal(b1-4)GlcNAc(b1-3)Gal(b1-4)GlcNAc(b1-2)Man(a1-3)]Man(b1-4)GlcNAc(b1-4)[Fuc(a1-6)]GlcNAc
Summary of the method: as §1

[27] = biological target: GlcNAc(b1-3)Gal(b1-4)GlcNAc(b1-3)Gal(b1-4)GlcNAc(b1-3)GalNAc
Summary of the method: as §1

B1: Blon2355mut (Bifidobacterium longum) (protein)
chain: MVQEPTLEWHVIPEPTNVEPLVGTCSLPLSGTVVEQRGADDAEAVFARQLVDDIKRVCGGRWQVASGEVQREVTLRTSPSLDDWSYVLEVSPDGVVITGSGFEGVRDGVQTLRQIIRQIGLTIPCMVIRDRPAFSTRGYYLDVTRGRVPSMAWLKSWVDRLCFYKYNQFQLYIEHTFQFNGLSEVWRGADPLTSSDILELDSYCAARGIELVPSVSTFGHHYTALRTRQLRDLGEFPEDADRPFSLIERMTHHTLNITDERSYEFSTSLIDELMPLFRSRKFNICANETFDLGKGRSKQESAKRGVGAMYADFVERLCRHVDDRGHDVMVWADVALEHPEIIDTLPKNITWLNWQYEPNVDDGTTAALADAGATQMVCPAVWCWNALIPRIDDAWNNITRMARHGRAHDVSGMLVTDWGDFGHVNDPRMSVPGMIFGAQQSWNPDAELSEVDMLSRISTIEYGDHTGSVVGALRGASAKGGFSWSDLVTYLELDDGRGGCNTEIVRVMGCLEAYRNDLPQSGQARLADARVSMLRTLRDSILAGRELNGKLDDAAKDITQLLRVAGDPSSAAVWSLAIDGQRLLNRVGLALLAAHGVVRQDEAGIDAAKLADELECWTEQYSRLWHEVSRQSELARIQHVVWRAADVLRSI
[1]
  glycan array binding signal (z-score): -0.111
[2]
  glycan array binding signal (z-score): -0.811
[3]
  glycan array binding signal (z-score): -0.863
[4]
  glycan array binding signal (z-score): -0.552
[5]
  glycan array binding signal (z-score): -1.41
[6]
  glycan array binding signal (z-score): -1.06
[7]
  glycan array binding signal (z-score): -1.12
[8]
  glycan array binding signal (z-score): -0.395
[9]
  glycan array binding signal (z-score): 0.421
[10]
  glycan array binding signal (z-score): 0.26
[11]
  glycan array binding signal (z-score): -0.663
GlcNAc(b1-3)Fuc
  glycan array binding signal (z-score): 2.05
GlcNAc(b1-3)Gal
  glycan array binding signal (z-score): -0.509
[12]
  glycan array binding signal (z-score): 0.006
GlcNAc(b1-3)Gal(b1-4)Glc
  glycan array binding signal (z-score): -1.05
[13]
  glycan array binding signal (z-score): -0.807
[14]
  glycan array binding signal (z-score): -0.079
[15]
  glycan array binding signal (z-score): 0.6
[16]
  glycan array binding signal (z-score): 0.064
[17]
  glycan array binding signal (z-score): -0.647
[18]
  glycan array binding signal (z-score): 0.266
[19]
  glycan array binding signal (z-score): 0.248
[20]
  glycan array binding signal (z-score): -0.507
[21]
  glycan array binding signal (z-score): 1.34
[22]
  glycan array binding signal (z-score): 2.21
[23]
  glycan array binding signal (z-score): 0.25
[24]
  glycan array binding signal (z-score): 0.045
[25]
  glycan array binding signal (z-score): 1.1
[26]
  glycan array binding signal (z-score): 0.731
[27]
  glycan array binding signal (z-score): -0.133

Source: the supplement of paper PMC8728848
